Screening data, single-dose tests

Mtb glucose medium: 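Whole-cell growth test on Mycobacterium tuberculosis, read after 3 days in glucose-containing 7H9 medium; the read-out is not stated. Tested at 500 µM. The record gives no direction; compounds that gave an IC50 in retests scored well above the rest, so higher reads as more growth inhibition. Of about 18,000 compounds tested this way, about 1,400 (7.9%) reached 50% or more in at least one test.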
Mtb cholesterol medium: 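Phenotypic screen: M. tuberculosis growth, cholesterol and DPPC medium, 4 days; the read-out is not stated. Tested at 500 µM. The record gives no direction; compounds that gave an IC50 in retests scored well above the rest, so higher reads as more growth inhibition. Size under these conditions: about 18,000 compounds, about 900 of them at 50% or above in at least one test.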

The filed quantity is “Percent Effect” (%). The controls that fix the scale are not given in the record; negative values are as filed. This is an unselected part of the compounds tested.

compound	Mtb glucose medium	Mtb cholesterol medium
O=C(NCCOc1ccccc1)C1CNCCO1 (stereo not drawn)	6.961	7.859
NC(=O)N1CCCC(C(=O)NC2CCCCC2)C1 (stereo not drawn)	5.215	-1.249
CCCc1noc(CNc2ccccc2C(N)=O)n1	-5.187	8.138
COCC(N)c1ccc(Cl)cc1 (stereo not drawn)	35.48	47.42
COc1ccc(OC)c(C(=O)Cn2cnc(C#N)n2)c1	2.237	-1.135
CC(C)(C)c1noc(CCC(=O)N2CCSCC2)n1	52.69	19.6
CC1CN(C(=O)NCc2ccsc2)CCO1 (stereo not drawn)	5.734	12.02
Cc1cncc(-c2cc(NCCO)nc(N)n2)c1	-2.967	2.971
NCc1nnc2n1CCCCC2	0.6214	12.28
CN1CCN(c2ccncc2N)CC1	-7.556	3.185
NCC(=O)N1CCN(Cc2ccccc2)CC1	8.09	11.1
O=C(CCn1cc(Br)cn1)NCc1cccs1	63.75	61.26
CCC1CN(CCN2CCOCC2)CCN1CC(F)F (stereo not drawn)	-5.529	-11.7
CC(C)C(=O)NCc1cn2ccccc2n1	18.36	-0.9389
CCOC(=O)c1ncncc1SC	2.14	4.172
NC(=O)C[C@@H](N)c1ccc(Cl)cc1	13.18	8.182
CCc1nn(C)c(N)c1CC	20.61	21.5
CCc1ccc(C(COC)NS(=O)(=O)CC)o1 (stereo not drawn)	-13.5	-17.94
C1COC(COC2CCNCC2)C1 (stereo not drawn)	-0.6884	3.486
COCCC(=O)NC1CCN(CC2CCCC2)C1 (stereo not drawn)	22.49	5.977
CN(CC(=O)Nc1cnc2ccccc2c1)S(C)(=O)=O	0.953	-117.7
Cn1ncc2c(N3CCN(C(N)=O)CC3)ncnc21	12.76	1.774
COc1ccc(OC)c(NC(=O)c2ccccn2)c1	82.36	78.5
Cn1cc(CNCC2COc3ccccc3O2)cn1 (stereo not drawn)	29.09	31.87
Cn1nccc1C(=O)N1CCN(c2ncccn2)CC1	13.34	7.893
CNCc1nc(-c2ccccc2)c[nH]1	25.79	12.91
C[C@@H](O)CNCc1cnn(-c2ccc(F)cc2)c1	31.78	20.24
CN(C(=O)CSc1nnc(N)s1)C1CCS(=O)(=O)C1 (stereo not drawn)	-6.141	-8.718
CCN1CN(S(=O)(=O)c2cc(C)ccc2OC)CC1=O	10.71	-7.467
Cc1noc(C)c1CN1CCC(NC(=O)C2CC2)CC1	-0.5404	-6.941
O=c1[nH]c(CN2CCOCC2)nc2ccsc12	-8.485	2.723
Cc1ccn(-c2ccccc2NC(=O)CN(C)C)n1	17.99	9.973
CCn1cc(NC(=O)NCC2CCS(=O)(=O)C2)cn1 (stereo not drawn)	12.88	15.33
CNCc1cnn(Cc2ccccc2)c1	-2.33	-11.84
CN(C)c1ccc(NC(=O)c2ccc(Cl)o2)cn1	-14.91	-10.76
CNC(=O)CN(C)c1nccc(C2CCCC2)n1	30.52	4.966
O=C(c1c(F)cccc1F)N1CCNCC1	5.236	-5.901
Brc1cncc(NCCn2ccnc2)c1	28.19	9.949
COCCNc1nc(-c2ccc(S(N)(=O)=O)cc2)cs1	72.41	56.74
N#Cc1ccc(CN2CCc3n[nH]c(=O)n3CC2)cc1	-0.8946	2.106
CN1CCN(C(=O)C2CCC2)C(c2ccccc2)C1 (stereo not drawn)	-2.301	-9.308
CN(C)C(C)(C)CNC(=O)NCCC1CCCCO1 (stereo not drawn)	63.32	10.66
Cc1cc(C(=O)N2C[C@@H](CO)[C@H](N(C)C)C2)no1	-2.089	8.486
OC(c1cc2n(n1)CCN(Cc1ccoc1)C2)C1CC1 (stereo not drawn)	4.969	-9.348
CC(=O)Nc1nc(C(=O)N(C)C(C)CC(C)C)cs1 (stereo not drawn)	-2.457	-0.3279
OCCSc1ccccn1	31.97	32.73
CC1CCN(C(=O)CNS(=O)(=O)c2ccccc2)CC1	31.08	18.9
O=C(c1ccc(F)cc1)c1ncc[nH]1	25.59	-1.798
CCS(=O)(=O)N(C)C1CCN(c2nc(C)ns2)CC1	18.38	-10.06
O=C(NC1CC1)c1ccc(Cn2cnnn2)cc1	17.84	17.59
CC(=O)c1ccn(C)n1	3.572	10.88
CC(C)(O)CNC1CCOCC1	-13.37	-6.284
CC(C)(O)CN1CCN(C(=O)CN2CSCC2=O)CC1	-2.112	-4.573
CC(CN1CCOCC1)NC(=O)Nc1nccs1 (stereo not drawn)	30.66	-8.842
CNC1CCN(C(=O)Cc2cccs2)C1 (stereo not drawn)	6.475	-2.701
COCCn1ccnc1CN1CCCC(NC(C)=O)C1 (stereo not drawn)	10.31	2.936
CNC(=O)c1nc(-c2ccc(C(F)(F)F)cc2)no1	-3.974	0.947
CCSc1ncnc(N)n1	20.8	23.79
CCc1ccc(C2CNCCO2)cc1 (stereo not drawn)	46.78	34.3
CCC(NC(=O)Cc1cnc[nH]c1=O)c1ccncc1 (stereo not drawn)	9.082	-3.356
CC(C)(c1nnnn1-c1ccccc1)N1CCOCC1	-1.131	-5.442
CC(Sc1nccn1C1CC1)C(=O)NC(N)=O (stereo not drawn)	23.15	19.01
COc1ncccc1C(=O)NCCn1ccnc1	-6.495	-11.1
CC(C)(C)OC(=O)NC(CN)C1CC1 (stereo not drawn)	14.7	15.15
O=C(NC1CC1)c1ccccc1SC1CCS(=O)(=O)C1 (stereo not drawn)	8.525	5.117
CCN(CC)CC(=O)Nc1ncccc1O	-0.7925	-0.01194
Cc1ccc(F)c(CN2CC[C@H](N)C2)c1	81.63	63.42
Cc1cc2c(cc1S(=O)(=O)N1CCCC(N)C1)OCO2 (stereo not drawn)	50.45	2.2
NC(=O)COc1cccc(C(=O)N2CCCCCC2)c1	12.74	7.42

Measurements from “University of Dundee, Small-Polar-MMV Screening Library” (2021), ChEMBL document CHEMBL3988442.